PubChem BioAssay AID2417 (National Center for Advancing Translational Sciences (NCATS), 2010)
The whole screen tested about 140,000 compounds, of which about 4,300 (3.1%) were called active. Inconclusive means that the source gave no clear call. Such entries were picked first, then a sample of the others.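 The calls were made as follows: active = readout at or below -70, meaning at least 70% loss of cells showing the perinucleolar compartment, a nuclear body marking cancer cells; inconclusive = readout between -30 and a set limit; inactive = the rest.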

Assay: High Content Assay for Compounds that inhibit the Assembly of the Perinucleolar Compartment;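 also: plate controls were DMSO wells for no effect and camptothecin positive control wells for full effect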
Conditions: PC3M PTB-GFP, PNC prevalence imaging, 16 h; at 10 µM; hits give low values
Outline: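 Compounds are pinned in duplicate onto adhered PC3M cells stably expressing GFP-tagged PTB and incubated 16 h at 37 C. Cells are then fixed, nuclei stained with Hoechst, and PNC-positive cells counted.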

SMILES | activity change (PNC), negative = inhibition
COc1ccccc1OCCNC(=O)c1cc(F)c(F)cc1Cl | inactive: 30%
Cc1nc2c(cc1C(=O)N/N=C/c1ccc(O)c(O)c1)c(=O)n(C)c(=O)n2C | active: -88.8%
COCCn1c(SCC(=O)NCc2ccco2)nnc1-c1c[nH]c2ccccc12 | inconclusive: -39.7%
Cc1ccc(C(=O)NCC(=O)NCC(=O)OCC(=O)c2ccc(F)cc2)cc1 | inactive: 41.5%
c1ccn2c(SCc3cn4ccsc4n3)nnc2c1 | inconclusive: -35.5%
COc1ccc2cc(S(=O)(=O)N3CCCCC3)ccc2c1S(=O)(=O)N1CCCCC1 | inconclusive: -52.7%
COc1ccc2c(c1)c1nnc(SCC(=O)N3C(C)CCCC3C)nc1n2C (stereo not given) | inactive: 55.2%
CCNC(=O)CN(C1CCCCC1)S(=O)(=O)c1ccc(F)cc1 | inactive: 11.5%
CC1=C(C(=O)OC(C)C)C(c2ccc(F)cc2)NC(=O)N1 (stereo not given) | inconclusive: -61.8%
Cc1ccc2nc(Nc3ccccc3)c(/C=N/O)c(=O)n2c1 | active: -100%
CCN(CC(=O)Nc1cc(Cl)ccc1C)c1ncnc2sc(C)c(C)c12 | inconclusive: -44.5%
CCOc1ccc(NC(=O)CN2CCN(CC(=O)Nc3cc(OC)cc(OC)c3)CC2)cc1 | inactive: 21.2%
CC1(C)CC2(CCO1)N1CC3(C)CN2CC(C)(C1)C3O (stereo not given) | inconclusive: -71.7%
Cc1ccccc1C(=O)NNC(=O)C1CCCN(c2ncccn2)C1 (stereo not given) | inactive: 6.42%
O=C(Nc1ccccc1)NC1(C(=O)NCc2cccs2)CCCCC1 | active: -95.7%
Cn1c(=O)c2cc(S(=O)(=O)NC(C(=O)Nc3cccnc3)c3ccccc3)ccc2n(C)c1=O (stereo not given) | inconclusive: -33.1%
COc1cc(C(C(=O)NC(C)(C)C)N(Cc2ccc3c(c2)OCO3)C(=O)c2cnccn2)cc(OC)c1OC (stereo not given) | inactive: -21.2%
COc1ccc2c(c1)C(C1=C(O)CC(C)(C)CC1=O)C1=C(CC(C)(C)CC1=O)O2 (stereo not given) | inconclusive: -48.5%
CCc1ccc2[nH]c(=O)c(CN(CCN(C)C)C(=O)Nc3ccccc3OC)cc2c1 | inconclusive: -57.9%
Nn1cnnc1N/N=C\c1ccc(-c2ccccc2[N+](=O)[O-])o1 | inconclusive: -34.1%
CCOc1ccc(C(=O)Nc2c3c(nn2C(C)(C)C)CSC3)cc1OCC | inconclusive: -64%
Fc1cccc(Nc2ncnc3sc4c(c23)CCC4)c1 | inconclusive: -34%
COc1cccc(OC)c1OCCCN1CCOCC1 | inconclusive: -31.7%

Nothing new here: nine of the compounds above.
SMILES | activity change (PNC), negative = inhibition
CCN(CC(=O)Nc1cc(Cl)ccc1C)c1ncnc2sc(C)c(C)c12 | inconclusive: -44.5%
CCOc1ccc(NC(=O)CN2CCN(CC(=O)Nc3cc(OC)cc(OC)c3)CC2)cc1 | inactive: 21.2%
CC1(C)CC2(CCO1)N1CC3(C)CN2CC(C)(C1)C3O (stereo not given) | inconclusive: -71.7%
Cc1ccccc1C(=O)NNC(=O)C1CCCN(c2ncccn2)C1 (stereo not given) | inactive: 6.42%
O=C(Nc1ccccc1)NC1(C(=O)NCc2cccs2)CCCCC1 | active: -95.7%
Cn1c(=O)c2cc(S(=O)(=O)NC(C(=O)Nc3cccnc3)c3ccccc3)ccc2n(C)c1=O (stereo not given) | inconclusive: -33.1%
COc1cc(C(C(=O)NC(C)(C)C)N(Cc2ccc3c(c2)OCO3)C(=O)c2cnccn2)cc(OC)c1OC (stereo not given) | inactive: -21.2%
COc1ccc2c(c1)C(C1=C(O)CC(C)(C)CC1=O)C1=C(CC(C)(C)CC1=O)O2 (stereo not given) | inconclusive: -48.5%
CCc1ccc2[nH]c(=O)c(CN(CCN(C)C)C(=O)Nc3ccccc3OC)cc2c1 | inconclusive: -57.9%

(further entries)

SMILES | activity change (PNC), negative = inhibition
C=CCNCCOc1cccc(Br)c1 | inconclusive: -54.8%
Cc1c(C(=O)O)[nH]c2c1C(=O)CC(c1ccc(Cl)cc1)C2 (stereo not given) | inconclusive: -34.7%
CN(C)CCCNc1cc(Cl)c(S(=O)(=O)N2CCCCC2)cc1C(=O)O | inconclusive: -40.6%
O=C(Nc1nc2ccc(Oc3ccccc3)cc2s1)c1cc([N+](=O)[O-])ccc1N1CCOCC1 | inconclusive: -37.7%
Cc1ccc(S(=O)(=O)NCCN=C(CN2CCCC2)NS(=O)(=O)c2ccc(C)cc2)cc1 | inconclusive: -59.5%
Cc1ccc(C(=O)OC2=CC(=O)CC(C)(C)C2)cc1 | inconclusive: -43.5%
COC(=O)c1ccc(N2CCOCC2)c(NC(=O)Nc2cccc(OC)c2)c1 | inconclusive: -50.8%
COc1ccc(NC(=O)CN(C)S(=O)(=O)c2ccc3c(c2)OCCO3)c2ncccc12 | inconclusive: -34.4%
CN(Cc1ccc(F)cc1)C(=O)COc1ccccc1-c1ccccc1 | inconclusive: -49.1%
CCCCSc1nsc(NC(C)=O)n1 | inconclusive: -53%
COCCOc1ccc(C(F)(F)F)cc1NC(=O)c1ccc(F)cc1 | inconclusive: -38.6%
O=C(NCc1ccccc1)C1CCN(S(=O)(=O)c2cc([N+](=O)[O-])ccc2Cl)CC1 | inactive: -12.5%
CC(=O)c1cnc2c(-c3ccccc3)c(C)nn2c1C | inconclusive: -62.6%
Nc1nc(CSCc2ccccc2)nc(N2CCOCC2)n1 | active: -107%
CCOC(=O)c1sc2nc(N3CCOCC3)c3c(c2c1N)CCC3 | active: -95.8%
COc1ccc(CCNC(=O)CSc2cc(=O)[nH]c(N)n2)cc1OC | inconclusive: -43.7%
Cn1c(-c2ccc(F)cc2)cnc1NCc1ccccc1 | inconclusive: -47.6%
CC(C)c1ccc(CNc2ccc(N3CCOCC3)cc2)cc1 | inconclusive: -70.2%
Cc1cccc(Nc2nc3c(c(=O)n(C)c(=O)n3C)n2Cc2ccccc2)c1 | inconclusive: -54.5%
COc1ccc(C(c2c(C)[nH]n(-c3ccccc3)c2=O)c2c(C)[nH]n(-c3ccccc3)c2=O)cc1OC | inconclusive: -32.4%
COc1ccc(-c2oc(NC(C)=O)c(C#N)c2-c2ccc(OC)cc2)cc1 | inconclusive: -61.1%
COc1ccc(OC)c2[nH]c(=O)c(CCNC(=O)C(C)C)cc12 | inconclusive: -47.5%
